Reference: PubChem BioAssay AID1224829 (NIAID, 2016)
The whole screen tested about 3,800 reagents; below is a part drawn at random. 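Calls cover raised and lowered translocation; gene median uses one vendor's three siRNAs; qiagen siRNAs acted more weakly than ambion siRNAs.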 Reagents against one gene are numbered here.

- Assay: 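Follow-up of TLR4-NF-kappaB regulators using six separate siRNAs for each gene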 (follow-up of hits)
- Cells: mouse RAW264.7 G9 macrophage reporter cells
- Reagents: single siRNA against mouse genes, 100 nM
- Timing: 2 days of siRNA knock-down, then 40 min of LPS before fixing
- Conditions: LPS (Salmonella minnesota R595) at 10 ng/ml
- Detection: 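High-content images after 40 min LPS exposure; GFP-p65 nucleus to surrounding ring signal ratio, normalised to plate median and non-targeting control wells, expressed as z-score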
- Reading the numbers: p65 translocation z-score and gene median z-score, per vendor: higher = more nuclear NF-kappaB p65 after LPS
- Rule for the call: 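An siRNA is called active when the mean z-score of its two replicates is above 2 or below -2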
- Calls: active = changed p65 translocation (either direction); inactive = no clear change

gene	reagent no.	siRNA vendor or control pool	p65 translocation z-score, replicate mean	p65 translocation z-score, replicate 1	p65 translocation z-score, replicate 2	gene median z-score, per vendor	activity call
Ube2e2	1	ambion single siRNA	3.6	4.36	2.84	0.284	active
Ube2e2	2	ambion single siRNA	0.284	0.408	0.16	0.284	inactive
Ube2e2	3	ambion single siRNA	-1.19	-1.41	-0.966	0.284	inactive
Ube2e2	4	qiagen single siRNA	-0.621	-0.793	-0.448	0.206	inactive
Ube2e2	5	qiagen single siRNA	2.2	0.462	3.94	0.206	active
Ube2e2	6	qiagen single siRNA	0.843	1.74	-0.0489	0.206	inactive
Skint7	1	ambion single siRNA	1.11	1.57	0.654	-0.144	inactive
Skint7	2	ambion single siRNA	-1.15	-1.36	-0.941	-0.144	inactive
Skint7	3	ambion single siRNA	-0.662	0.895	-2.22	-0.144	inactive
Skint7	4	qiagen single siRNA	-1.02	-1.09	-0.939	-0.884	inactive
Skint7	5	qiagen single siRNA	-0.712	-0.829	-0.596	-0.884	inactive
Skint7	6	qiagen single siRNA				-0.884	inactive
Tnfrsf11b	1	ambion single siRNA	-2.23	-2.91	-1.56	-1.63	active
Tnfrsf11b	2	ambion single siRNA	0.702	0.377	1.03	-1.63	inactive
Tnfrsf11b	3	ambion single siRNA	-1.98	-1.7	-2.26	-1.63	inactive
Tnfrsf11b	4	qiagen single siRNA	-1.95	-1.37	-2.53	-1.69	inactive
Tnfrsf11b	5	qiagen single siRNA	-0.93	-0.173	-1.69	-1.69	inactive
Tnfrsf11b	6	qiagen single siRNA	-5.47	-5.47		-1.69	active

Continued (2 carried over from the part before).
gene	reagent no.	siRNA vendor or control pool	p65 translocation z-score, replicate mean	p65 translocation z-score, replicate 1	p65 translocation z-score, replicate 2	gene median z-score, per vendor	activity call
Tnfrsf11b	5	qiagen single siRNA	-0.93	-0.173	-1.69	-1.69	inactive
Tnfrsf11b	6	qiagen single siRNA	-5.47	-5.47		-1.69	active
1700010I14Rik	1	ambion single siRNA	0.563	0.574	0.552	0.563	inactive
1700010I14Rik	2	ambion single siRNA	2.58	2.11	3.06	0.563	active
1700010I14Rik	3	ambion single siRNA	-3.97	-3.31	-4.63	0.563	active
1700010I14Rik	4	qiagen single siRNA	2.52	2.55	2.49	2.44	active
1700010I14Rik	5	qiagen single siRNA	1.35	0.309	2.4	2.44	inactive
1700010I14Rik	6	qiagen single siRNA	2.72	2.15	3.29	2.44	active
Zfp286	1	ambion single siRNA	-3.41	-4.9	-1.93	-2.47	active
Zfp286	2	ambion single siRNA	-2.03	-1.04	-3.01	-2.47	active
Zfp286	3	ambion single siRNA	-2.48	-1.59	-3.37	-2.47	active
Zfp286	4	qiagen single siRNA	1.05	0.581	1.52	0.734	inactive
Zfp286	5	qiagen single siRNA	0.755	2.19	-0.679	0.734	inactive
Zfp286	6	qiagen single siRNA	0.0058	0.888	-0.876	0.734	inactive
Itpr1	1	ambion single siRNA	-2.85	-3.55	-2.16	-2.34	active
Itpr1	2	ambion single siRNA	-0.475	-0.206	-0.744	-2.34	inactive
Itpr1	3	ambion single siRNA	-2.75	-2.53	-2.97	-2.34	active
Itpr1	4	qiagen single siRNA	1.54	-0.548	3.63	-2.41	inactive
Itpr1	5	qiagen single siRNA	-3.48	-3.48		-2.41	active
Itpr1	6	qiagen single siRNA	-3.57	-2.41	-4.72	-2.41	active
Mob3b	1	ambion single siRNA	-0.487	-0.286	-0.689	-4.36	inactive
Mob3b	2	ambion single siRNA	-5.57	-6.18	-4.96	-4.36	active
Mob3b	3	ambion single siRNA	-5.11	-6.44	-3.77	-4.36	active
Cpt1b	1	ambion single siRNA	0.627	1.61	-0.356	-2.49	inactive
Cpt1b	2	ambion single siRNA	-2.49	-0.959	-4.03	-2.49	active
Cpt1b	3	ambion single siRNA	-5.7	-4.42	-6.97	-2.49	active
Cpt1b	4	qiagen single siRNA	0.648	-0.587	1.88	0.19	inactive
Cpt1b	5	qiagen single siRNA	0.645	0.989	0.301	0.19	inactive
Cpt1b	6	qiagen single siRNA	-0.0514	-0.182	0.0788	0.19	inactive
Apool	1	ambion single siRNA	-0.74	-1.16	-0.315	-0.74	inactive
Apool	2	ambion single siRNA	0.811	-0.282	1.9	-0.74	inactive
Apool	3	ambion single siRNA	-6.62	-5.91	-7.33	-0.74	active
Apool	4	qiagen single siRNA	-1.97	-2.2	-1.75	-0.691	inactive
Apool	5	qiagen single siRNA	-0.47	-0.691	-0.25	-0.691	inactive
Apool	6	qiagen single siRNA	1.54	1.54		-0.691	inactive
